# Laboratory results taken from US8883153B2, “Methods for preventing and treating angioedema” (The Research for The State University of New York, priority 2009, dated 2014).
# At least one compound was matched to its structure with a doubt left. Peptide text beside a SMILES is read from it.
# Tested on: HUVEC monolayers
# Experiment: transwell model of vascular permeability (FITC-BSA through HUVEC monolayer)
# Assay type: cell-based, human
# Conditions: bradykinin 10^−6 M, positive control
structure (smiles),measurement,value
"NC(N)=NCCC[C@H](NC(=O)[C@H](Cc1ccccc1)NC(=O)[C@@H]1CCCN1C(=O)[C@H](CO)NC(=O)[C@H](Cc1ccccc1)NC(=O)CNC(=O)[C@@H]1CCCN1C(=O)[C@@H]1CCCN1C(=O)[C@@H](N)CCCN=C(N)N)C(=O)O [Bradykinin, bradykinin] (H-RPPGFSPFR-OH)",time to increase in leakage,< 5 min
